Assay [1] concerns the target EGFP-E2F4 fusion protein (E2F transcription factor 4) (UniProt Q16254). Briefly: co-IP; lysates of HepG2 cells overexpressing mCherry-Id1 and EGFP-E2F4; IP with anti-Cherry or anti-GFP, protein A/G agarose; lysis buffer 50 mM Tris-Cl pH 7.5, 50 mM NaCl, 5 mM EDTA, 1% NP-40; 4 C; western blot.
The target in a further assay is GST-E2F4 (UniProt Q16254). Briefly: pull-down; GST-E2F4 as bait on GST affinity column, His-Id1 as prey; washed with PBS, eluted by glutathione; western blot with anti-Id1, anti-His, anti-E2F4, anti-GST; both purified.

By UniProt entry, the sequences of proteins in these tests, tags left out. Where a name states a change or a piece, a line headed by the entry shows the natural chain unless it says otherwise.
UniProt Q16254: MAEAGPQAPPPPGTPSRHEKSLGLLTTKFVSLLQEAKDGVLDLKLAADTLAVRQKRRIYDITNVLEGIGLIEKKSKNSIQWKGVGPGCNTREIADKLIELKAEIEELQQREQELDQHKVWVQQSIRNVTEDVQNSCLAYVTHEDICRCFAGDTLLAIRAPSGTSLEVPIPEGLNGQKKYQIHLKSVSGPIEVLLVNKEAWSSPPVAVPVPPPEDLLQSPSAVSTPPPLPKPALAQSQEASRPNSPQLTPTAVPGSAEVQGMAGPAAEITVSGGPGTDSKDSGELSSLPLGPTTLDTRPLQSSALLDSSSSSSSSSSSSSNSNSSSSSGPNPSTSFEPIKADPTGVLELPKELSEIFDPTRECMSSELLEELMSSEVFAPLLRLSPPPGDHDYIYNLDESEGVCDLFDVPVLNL

Results are given in words; binding and its absence hold for the method and conditions named. For some assays here: Binding seen in cells or lysates may run through a third protein. Some binding calls cover weakened binding; strength is not graded here. Sequences can lack the tags named with a protein.

B1: mCherry-Id1 fusion protein (Inhibitor of differentiation/DNA binding 1) (protein, UniProt P41134 1-155)
chain: MKVASGSTATAAAGPSCALKAGKTASGAGEVVRCLSEQSVAISRCAGGAGARLPALLDEQQVNVLLYDMNGCYSRLKELVPTLPQNRKVSKVEILQHVIDYIRDLQLELNSESEVGTPGGRGLPVRAPLSTLNGEISALTAEAACVPADDRILCR
In the case of B1, in assay [1], the binding entry is listed as “binds”.

B2: His-Id1 (protein, UniProt P41134 1-155)
chain: MKVASGSTATAAAGPSCALKAGKTASGAGEVVRCLSEQSVAISRCAGGAGARLPALLDEQQVNVLLYDMNGCYSRLKELVPTLPQNRKVSKVEILQHVIDYIRDLQLELNSESEVGTPGGRGLPVRAPLSTLNGEISALTAEAACVPADDRILCR
Consider B2, for which the binding entry with GST-E2F4 is on record as “binds”.

These data come from paper PMC8692152.
